Test results reported in PMC8859912.

Amino acid sequences for entries named in this document (tags omitted). A change or cut given only in a name is not applied to a line headed by its entry.
UniProt Q80VM7: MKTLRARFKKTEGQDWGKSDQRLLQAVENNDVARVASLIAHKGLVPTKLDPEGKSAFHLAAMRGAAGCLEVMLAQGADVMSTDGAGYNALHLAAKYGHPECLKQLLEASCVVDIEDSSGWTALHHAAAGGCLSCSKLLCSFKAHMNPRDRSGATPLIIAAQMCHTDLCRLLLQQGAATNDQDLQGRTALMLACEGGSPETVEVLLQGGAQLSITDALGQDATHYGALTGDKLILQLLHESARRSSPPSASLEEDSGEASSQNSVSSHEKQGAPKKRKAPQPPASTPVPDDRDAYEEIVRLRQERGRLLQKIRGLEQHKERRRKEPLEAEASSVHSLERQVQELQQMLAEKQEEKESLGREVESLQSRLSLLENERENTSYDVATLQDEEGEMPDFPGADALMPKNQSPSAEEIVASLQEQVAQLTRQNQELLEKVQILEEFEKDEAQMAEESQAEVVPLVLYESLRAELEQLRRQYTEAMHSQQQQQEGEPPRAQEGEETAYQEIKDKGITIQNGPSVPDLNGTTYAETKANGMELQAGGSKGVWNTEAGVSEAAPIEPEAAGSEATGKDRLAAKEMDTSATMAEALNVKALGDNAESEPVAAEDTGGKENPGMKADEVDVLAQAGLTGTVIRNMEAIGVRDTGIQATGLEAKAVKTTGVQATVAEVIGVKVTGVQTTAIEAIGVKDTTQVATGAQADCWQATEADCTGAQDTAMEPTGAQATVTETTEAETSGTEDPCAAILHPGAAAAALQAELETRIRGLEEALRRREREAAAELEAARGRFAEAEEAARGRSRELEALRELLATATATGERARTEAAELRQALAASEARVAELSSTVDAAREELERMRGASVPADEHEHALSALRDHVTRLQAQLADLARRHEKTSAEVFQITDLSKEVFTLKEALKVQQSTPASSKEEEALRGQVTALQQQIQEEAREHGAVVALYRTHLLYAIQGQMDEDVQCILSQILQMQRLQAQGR

Target: ANKRD24 ΔAla-HA (mouse) (UniProt Q80VM7)
Test: co-IP; HEK293 cells transfected with both constructs; lysis in 50 mM Hepes, 150 mM NaCl, 1% Triton X-100, 1 mM EDTA, protease inhibitors; immunoprecipitation with anti-HA agarose beads; immunoblot

B1: GFP–TRIOBP-1 (protein, UniProt Q99KW3-1 1-580)
chain: MTPDLLNFKKGWMSILDEPGEWKKHWFVLTDSSLKYYRDSTAEEADELDGEIDLRSCTDVTEYAVQRNYGFQIHTKDAVYTLSAMTSGIRRNWIEALRKTVRPTSAPDVTKLSDCNKENTLHGYGTQKSSLKIGEQRTGSEVIGRGGPRKADGPRPSLDYVELSPLAPSSPQRMRTLSRSTPERPTKQEDLERDLAQRSEERRKWFESTDGRTPETPSGDGSRRGLGAPLTDDQQSRLSEEIEKKWQELEKLPLRENKRVPLTALLNQAHNDRRGPTSDSHEALEKEVQSLRAQLEAWRLRGEAPQNAPRLQEDSHIPPGYISQEACERSLAEMESSHQQVMEQLQRHHERELQRLQQEKEWLLAEETAATASAIEAMKKAYQEELSRELSKTRSLQQGPESLRKQHQLDMEALKQELQVLSERYSQKCLEIGALTRQAEEREHTLRRCQQEGQELLRHNQELHSHLSEEIDRLRSFIASQGTGNSCGRSNERSSCELEVLLRVKENELQYLKKEVQCLRDELQVIQKDKRFTGKYQDVYVELNHIKTRSEREIEQLKEHLRLAMAALQEKEAVRNSLAE
- binding: binds

Results are given in words; binding and its absence hold for the method and conditions named. Binding seen in cells or lysates may run through a third protein. A result given as binding can be weak or reduced; the word gives no strength. Sequences can lack the tags named with a protein.
